The target in assay [1] is T1, aldo-keto reductase family 1 member C1 (AKR1C1) (human (endogenous in QBC939)) (UniProt Q04828).
T1 sequence: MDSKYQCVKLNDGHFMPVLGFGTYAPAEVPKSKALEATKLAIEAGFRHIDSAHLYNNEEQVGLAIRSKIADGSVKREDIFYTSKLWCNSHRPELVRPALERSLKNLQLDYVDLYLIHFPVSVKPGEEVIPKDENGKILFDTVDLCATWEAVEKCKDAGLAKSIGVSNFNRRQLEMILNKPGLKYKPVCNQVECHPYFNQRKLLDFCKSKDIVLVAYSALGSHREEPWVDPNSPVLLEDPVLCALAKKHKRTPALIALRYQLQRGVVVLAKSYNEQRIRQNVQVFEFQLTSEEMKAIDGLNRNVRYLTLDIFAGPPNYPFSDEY
As to the kind of experiment: co-IP; endogenous proteins in QBC939 cell lysates; NP-40 lysis buffer, primary antibody or IgG control overnight at 4 °C, Protein A/G magnetic beads, PBST washes; immunoblot with antibodies against AKR1C1 and CYP1B1. Background: A western blot detects proteins with antibodies after separation by electrophoresis.

Assay [2] addresses T2, wildtype FLAG-tagged AKR1C1 (human) (UniProt Q04828).
T2 sequence: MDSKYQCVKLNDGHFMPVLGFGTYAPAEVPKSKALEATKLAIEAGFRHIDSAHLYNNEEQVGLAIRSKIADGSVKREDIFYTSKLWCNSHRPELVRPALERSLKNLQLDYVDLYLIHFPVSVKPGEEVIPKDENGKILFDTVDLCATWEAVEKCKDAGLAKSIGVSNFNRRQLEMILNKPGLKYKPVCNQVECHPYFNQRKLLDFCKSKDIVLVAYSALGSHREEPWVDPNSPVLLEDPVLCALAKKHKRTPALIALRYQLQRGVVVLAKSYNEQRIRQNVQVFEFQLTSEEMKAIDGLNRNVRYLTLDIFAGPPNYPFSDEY
As to the kind of experiment: co-IP; 293T cells co-transfected with FLAG-tagged AKR1C1 (wild type or truncation mutants) and HA-tagged CYP1B1 (wild type or truncation mutants); immunoprecipitation with Flag antibody (Fig. 5D) or HA antibody (Fig. 5E), western blot.

Assay [3] concerns the target T3, FLAG-tagged AKR1C1 fragment containing the first 160 residues (human) (UniProt Q04828).
T3 sequence: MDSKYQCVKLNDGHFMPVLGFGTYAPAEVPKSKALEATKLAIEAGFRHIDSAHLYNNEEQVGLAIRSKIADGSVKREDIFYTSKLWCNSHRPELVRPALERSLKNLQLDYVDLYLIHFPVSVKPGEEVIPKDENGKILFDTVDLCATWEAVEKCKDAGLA
The assay is described as above.

Assay [4] concerns the target T4, HA-tagged CYP1B1 fragment containing amino acid residues 161-310 (UniProt Q16678).
T4 sequence: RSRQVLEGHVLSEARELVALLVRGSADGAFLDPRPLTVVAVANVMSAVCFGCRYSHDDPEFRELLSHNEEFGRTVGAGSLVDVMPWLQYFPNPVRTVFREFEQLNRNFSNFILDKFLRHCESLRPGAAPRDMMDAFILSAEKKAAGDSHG
The assay is described as above.

Three molecules from publication PMC11894074 can be followed below.

These are yes or no findings as the source states them, for the method shown. In cells and extracts the contact can be indirect. Some entries that bind do so weakly or less than the wild type. For some of these results: Where a sequence is shown, tags or fusion partners need not be part of it.

B1: cytochrome P450 1B1 (CYP1B1) (enzyme, UniProt Q16678 1-543)
chain: MGTSLSPNDPWPLNPLSIQQTTLLLLLSVLATVHVGQRLLRQRRRQLRSAPPGPFAWPLIGNAAAVGQAAHLSFARLARRYGDVFQIRLGSCPIVVLNGERAIHQALVQQGSAFADRPAFASFRVVSGGRSMAFGHYSEHWKVQRRAAHSMMRNFFTRQPRSRQVLEGHVLSEARELVALLVRGSADGAFLDPRPLTVVAVANVMSAVCFGCRYSHDDPEFRELLSHNEEFGRTVGAGSLVDVMPWLQYFPNPVRTVFREFEQLNRNFSNFILDKFLRHCESLRPGAAPRDMMDAFILSAEKKAAGDSHGGGARLDLENVPATITDIFGASQDTLSTALQWLLLLFTRYPDVQTRVQAELDQVVGRDRLPCMGDQPNLPYVLAFLYEAMRFSSFVPVTIPHATTANTSVLGYHIPKDTVVFVNQWSVNHDPLKWPNPENFDPARFLDKDGLINKDLTSRVMIFSVGKRRCIGEELSKMQLFLFISILAHQCDFRANPNEPAKMNFSYGLTIKPKSFKVNVTLRESMELLDSAVQNLQAKETCQ
With B1, the binding entry in assay [1] is listed as “binds”.

B2: wildtype HA-tagged CYP1B1 (enzyme, UniProt Q16678 1-543)
chain: MGTSLSPNDPWPLNPLSIQQTTLLLLLSVLATVHVGQRLLRQRRRQLRSAPPGPFAWPLIGNAAAVGQAAHLSFARLARRYGDVFQIRLGSCPIVVLNGERAIHQALVQQGSAFADRPAFASFRVVSGGRSMAFGHYSEHWKVQRRAAHSMMRNFFTRQPRSRQVLEGHVLSEARELVALLVRGSADGAFLDPRPLTVVAVANVMSAVCFGCRYSHDDPEFRELLSHNEEFGRTVGAGSLVDVMPWLQYFPNPVRTVFREFEQLNRNFSNFILDKFLRHCESLRPGAAPRDMMDAFILSAEKKAAGDSHGGGARLDLENVPATITDIFGASQDTLSTALQWLLLLFTRYPDVQTRVQAELDQVVGRDRLPCMGDQPNLPYVLAFLYEAMRFSSFVPVTIPHATTANTSVLGYHIPKDTVVFVNQWSVNHDPLKWPNPENFDPARFLDKDGLINKDLTSRVMIFSVGKRRCIGEELSKMQLFLFISILAHQCDFRANPNEPAKMNFSYGLTIKPKSFKVNVTLRESMELLDSAVQNLQAKETCQ
Consider B2, for which the binding entry in assay [2] and in assay [3] was “binds” in each case.

B3: wildtype FLAG-tagged AKR1C1 (enzyme, UniProt Q04828 1-323)
chain: MDSKYQCVKLNDGHFMPVLGFGTYAPAEVPKSKALEATKLAIEAGFRHIDSAHLYNNEEQVGLAIRSKIADGSVKREDIFYTSKLWCNSHRPELVRPALERSLKNLQLDYVDLYLIHFPVSVKPGEEVIPKDENGKILFDTVDLCATWEAVEKCKDAGLAKSIGVSNFNRRQLEMILNKPGLKYKPVCNQVECHPYFNQRKLLDFCKSKDIVLVAYSALGSHREEPWVDPNSPVLLEDPVLCALAKKHKRTPALIALRYQLQRGVVVLAKSYNEQRIRQNVQVFEFQLTSEEMKAIDGLNRNVRYLTLDIFAGPPNYPFSDEY
For the molecule B3, the binding result in assay [4] is given as “binds”.
